Measured values published in paper doi:10.1101/2021.11.18.469188.
Results are given in words; binding and its absence hold for the method and conditions named. For part of these data: In cells and extracts the contact can be indirect. Some entries that bind do so weakly or less than the wild type.

Protein sequences, listed by entry. Tags and fused reporters are not part of them. Lines headed by an entry give the natural chain unless they say otherwise; changes in a name come on top. Residues count along the entry.
UniProt P54646: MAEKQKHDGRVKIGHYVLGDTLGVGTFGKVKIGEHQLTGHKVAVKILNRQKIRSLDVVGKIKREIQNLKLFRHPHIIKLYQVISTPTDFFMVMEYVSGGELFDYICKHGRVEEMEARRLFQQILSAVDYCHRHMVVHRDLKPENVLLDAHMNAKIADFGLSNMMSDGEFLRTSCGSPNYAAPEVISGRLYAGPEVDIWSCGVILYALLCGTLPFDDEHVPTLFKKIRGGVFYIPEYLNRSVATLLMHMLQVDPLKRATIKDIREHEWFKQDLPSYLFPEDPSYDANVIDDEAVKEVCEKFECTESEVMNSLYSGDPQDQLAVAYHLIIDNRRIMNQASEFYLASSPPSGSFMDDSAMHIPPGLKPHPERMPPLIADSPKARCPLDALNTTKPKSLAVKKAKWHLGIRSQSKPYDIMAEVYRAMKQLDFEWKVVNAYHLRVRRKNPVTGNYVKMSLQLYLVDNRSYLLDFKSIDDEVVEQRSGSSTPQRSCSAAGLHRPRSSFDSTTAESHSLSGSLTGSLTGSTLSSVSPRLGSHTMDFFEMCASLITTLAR
GST-AMPK-C (291-552 a.a.): residues 291-552 of P54646
UniProt P62330: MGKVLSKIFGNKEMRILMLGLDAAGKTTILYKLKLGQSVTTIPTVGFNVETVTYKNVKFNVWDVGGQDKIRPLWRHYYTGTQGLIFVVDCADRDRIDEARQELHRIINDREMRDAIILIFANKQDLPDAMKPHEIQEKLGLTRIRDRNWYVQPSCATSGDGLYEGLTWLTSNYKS

Columns and labels:
FLAG-AMPKα2-WT = FLAG-AMPKα2-WT (UniProt P54646); assay: co-IP
[1] = target: GST-AMPK-C (291-552 a.a.) (UniProt P54646); assay: pull-down

binding (FLAG-AMPKα2-WT)	binding [1]	Substance
no binding	–	Arf6-Q67L-myc (from UniProt P62330 1-175)
binds	–	Arf6-T27N-myc (from UniProt P62330 1-175)
–	binds	His-Arf6 WT (from UniProt P62330 1-175)
